{
  "sequences": {"note": "Chains of the proteins cited; added tags and fusions are not shown.", "UniProt Q0JBA9, entry or part of it": "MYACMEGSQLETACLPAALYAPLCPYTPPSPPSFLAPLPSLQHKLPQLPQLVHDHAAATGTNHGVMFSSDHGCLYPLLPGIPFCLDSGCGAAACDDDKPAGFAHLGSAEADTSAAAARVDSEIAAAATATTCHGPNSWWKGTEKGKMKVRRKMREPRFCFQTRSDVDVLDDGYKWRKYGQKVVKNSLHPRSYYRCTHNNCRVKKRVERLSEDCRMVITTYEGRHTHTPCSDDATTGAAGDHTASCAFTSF"},
  "source": "paper PMC7819943",
  "about": "“Rice protein-binding microarrays: a tool to detect cis-acting elements near promoter regions in rice”",
  "note": "This is one part of the list.",
  "data": [
    {"molecular_target": "OsWRKY34 (Oryza sativa, UniProt Q0JBA9 1-250)", "assay": "protein-binding microarray (RPBM); PBS, 2% BSA, 51.3 ng/ul salmon testes DNA, 50 uM zinc acetate, 200 nM TF, 25 C, 1 h; high values mean tight binding", "settings": "protein: recombinant; tags: N-terminal polyhistidine and DsRed monomer fusion (pET32a); label: CyDye5-dUTP incorporated in the synthesized complementary strand; 3' TTTTT single-stranded linker to array surface; dsDNA, one strand shown", "how_it_was_run": "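The binding signal is fluorescence intensity per array feature (arbitrary units). Readings came from an Axon 4000B scanner after a washed, 2% BSA-blocked, double-stranded custom Agilent array had been incubated for 1 h at 25 °C with 200 nM protein and 50 µM zinc acetate. The protein was a Ni–NTA-purified transcription factor fused N-terminally to polyhistidine and DsRed, expressed in E. coli BL21-CodonPlus.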", "values": [
      {"sequence": "TTTATTTCCCTGTCGCCGTAGTCCCCTTTCCACCAAGTCACGGAGTCACCTAGTGCAG", "binding signal": "8320 fluorescence intensity (a.u.)"},
      {"sequence": "CATCACCTTCCCCATCGACCGTCGTGCATCGTGCCCCGTCCGGAGTCACCTAGTGCAG", "binding signal": "10000 fluorescence intensity (a.u.)"},
      {"sequence": "CATCCTATAAATCACTTGAAACTTGACATTCCACTTTATACGGAGTCACCTAGTGCAG", "binding signal": "8100 fluorescence intensity (a.u.)"},
      {"sequence": "TCTCACTGTGCTCGGCCTTGGCCACCATCGTCATCCATTCCGGAGTCACCTAGTGCAG", "binding signal": "10100 fluorescence intensity (a.u.)"},
      {"sequence": "TTCCTTGTTCTTCTTGCCTACTACTAATTCTTCCGATCTGCGGAGTCACCTAGTGCAG", "binding signal": "9210 fluorescence intensity (a.u.)"},
      {"sequence": "GATCCTTTTGTGTTGACATATCATGGACAATCTTTTTCACCGGAGTCACCTAGTGCAG", "binding signal": "8100 fluorescence intensity (a.u.)"},
      {"sequence": "AGCTTCTAACTTCTAGCTTATTTTCTCAATTATACAATTTCGGAGTCACCTAGTGCAG", "binding signal": "8310 fluorescence intensity (a.u.)"},
      {"sequence": "AGTTCCTAATATTTCTCAATGTATATATGTACTCATTCCTCGGAGTCACCTAGTGCAG", "binding signal": "9150 fluorescence intensity (a.u.)"},
      {"sequence": "CGTGCTTATATAGAGGCATCTGGGGAATTAGGGTTTGACTCGGAGTCACCTAGTGCAG", "binding signal": "8860 fluorescence intensity (a.u.)"},
      {"sequence": "TTCTCATGTAATATCCGTCTTTTCGAAGAGCCTTTACGTACGGAGTCACCTAGTGCAG", "binding signal": "8710 fluorescence intensity (a.u.)"},
      {"sequence": "ACTACTGTTGATGTGTGTGTTACTATGTAATTCTTGTGTTCGGAGTCACCTAGTGCAG", "binding signal": "8670 fluorescence intensity (a.u.)"},
      {"sequence": "TCATCCGTGTATCAGTCGGTTTTTAAGTTCATTTCCTTTTCGGAGTCACCTAGTGCAG", "binding signal": "13500 fluorescence intensity (a.u.)"},
      {"sequence": "GTGGTGGTCGTAGAGGACGGCTATGGCGGGCGGGGACATCCGGAGTCACCTAGTGCAG", "binding signal": "8410 fluorescence intensity (a.u.)"},
      {"sequence": "CCGATCTATATGGGAGTTCCTGCAGTTAGTGTTCTTGAACCGGAGTCACCTAGTGCAG", "binding signal": "8790 fluorescence intensity (a.u.)"},
      {"sequence": "GGGCCGTTAGATCTTTTCAGTCTCCTTATATACCCAACCACGGAGTCACCTAGTGCAG", "binding signal": "9010 fluorescence intensity (a.u.)"},
      {"sequence": "GTCCGATCCTACTCTCGCGCCACATCGGACGGCCACGATCCGGAGTCACCTAGTGCAG", "binding signal": "9900 fluorescence intensity (a.u.)"},
      {"sequence": "TCCTCTTCCTTTCTTGGTCTTTGAGGGGATAAAATTCAAGCGGAGTCACCTAGTGCAG", "binding signal": "13400 fluorescence intensity (a.u.)"},
      {"sequence": "TGTTGTTGTTTTGTGATTTCTTGCTCTGCTATCGCTCGACCGGAGTCACCTAGTGCAG", "binding signal": "8510 fluorescence intensity (a.u.)"},
      {"sequence": "GCCGCCGCCGCCGCCGCGCGCCACCACCGCCGCAACCATGCGGAGTCACCTAGTGCAG", "binding signal": "8480 fluorescence intensity (a.u.)"},
      {"sequence": "TCCATGCTTCGGGTGACGTCCTCTTGATCCAAGAACTCGTCGGAGTCACCTAGTGCAG", "binding signal": "8170 fluorescence intensity (a.u.)"},
      {"sequence": "CGCCGTCGCCCACCTCCTCAGCTCGCACCGCAACCTCGCCCGGAGTCACCTAGTGCAG", "binding signal": "10600 fluorescence intensity (a.u.)"},
      {"sequence": "GCTTTATATGGGCCGGCACCTGATGGGCCTTCGTCATTTCCGGAGTCACCTAGTGCAG", "binding signal": "9500 fluorescence intensity (a.u.)"},
      {"sequence": "GTTAGTTTGGTTGGGTTGGTTGCCGTATGGATGAGGGAAGCGGAGTCACCTAGTGCAG", "binding signal": "9350 fluorescence intensity (a.u.)"},
      {"sequence": "GCGAACGCCTCTCGCGCGCGTGCTTACTGGTGACTGGTCCCGGAGTCACCTAGTGCAG", "binding signal": "8200 fluorescence intensity (a.u.)"},
      {"sequence": "GTATTGGCTCCGTTCTCATCTCTAGTTCACACCGCCAATACGGAGTCACCTAGTGCAG", "binding signal": "9160 fluorescence intensity (a.u.)"},
      {"sequence": "ATCACATTATCCGGCTGCCCACATATCCAATGTCTCAACCCGGAGTCACCTAGTGCAG", "binding signal": "8160 fluorescence intensity (a.u.)"},
      {"sequence": "ATGGGATCGGATTCATTTTTGTTTTTTCGCCCGGTTTTTTCGGAGTCACCTAGTGCAG", "binding signal": "14300 fluorescence intensity (a.u.)"},
      {"sequence": "TACACGCTCATGTACCTGCCCCGCGCGCCGCTGGTCGCCGCGGAGTCACCTAGTGCAG", "binding signal": "8530 fluorescence intensity (a.u.)"},
      {"sequence": "ACTGGTATTTTGTGGTAGGTTCATTTCATATGCTCCGTACCGGAGTCACCTAGTGCAG", "binding signal": "9100 fluorescence intensity (a.u.)"},
      {"sequence": "GCTGCTCATGCTATTTGTTCCAGTTATTCCGTTCAACCGCCGGAGTCACCTAGTGCAG", "binding signal": "11000 fluorescence intensity (a.u.)"},
      {"sequence": "CACCACCATGTCATGTGCCCGCCCACTACTACCACTTCGCCGGAGTCACCTAGTGCAG", "binding signal": "9610 fluorescence intensity (a.u.)"},
      {"sequence": "TATGATTTGCGGTCATTGGCAAAGTTGACTTTATTACTAACGGAGTCACCTAGTGCAG", "binding signal": "9210 fluorescence intensity (a.u.)"},
      {"sequence": "ACGTTAGCAGGTTCTCAACTTCTCATCTGCTTCTCTCTTTCGGAGTCACCTAGTGCAG", "binding signal": "8400 fluorescence intensity (a.u.)"},
      {"sequence": "ACTCGCTTAGCAAAACTTGGGTCATCTTACCACGAACTTCCGGAGTCACCTAGTGCAG", "binding signal": "8970 fluorescence intensity (a.u.)"},
      {"sequence": "CACCACCTCGCCTCGCCTCTGTATTTAATGGCGCGCCGCGCGGAGTCACCTAGTGCAG", "binding signal": "8160 fluorescence intensity (a.u.)"},
      {"sequence": "TGTGGGTGTGATTCGTGGGCTTCTTGGTGTCGGTGTGCCTCGGAGTCACCTAGTGCAG", "binding signal": "8140 fluorescence intensity (a.u.)"},
      {"sequence": "TTGCACTTATCTCTATGTCAAGCCGTCACATTTTCCAGACCGGAGTCACCTAGTGCAG", "binding signal": "10300 fluorescence intensity (a.u.)"},
      {"sequence": "TGCTGCCTGCGCCTGATTCTGACGATGTTACCGAAAGCTACGGAGTCACCTAGTGCAG", "binding signal": "8330 fluorescence intensity (a.u.)"},
      {"sequence": "AGTTGTTGAGTTGGTGTCCTGTTCTTGGACGGACAAGGGTCGGAGTCACCTAGTGCAG", "binding signal": "9330 fluorescence intensity (a.u.)"},
      {"sequence": "GTCTATGGTCACTGTTCTGGCTACCATGCATGCTCATGCTCGGAGTCACCTAGTGCAG", "binding signal": "10200 fluorescence intensity (a.u.)"},
      {"sequence": "ATGTTGCCCTACCACTCTCCTGACCATCGTTTTCTTTTCCCGGAGTCACCTAGTGCAG", "binding signal": "13700 fluorescence intensity (a.u.)"},
      {"sequence": "CGCCCGCCGCCTCCGTCGTCCCCGACCTCTACCACGCCCTCGGAGTCACCTAGTGCAG", "binding signal": "10500 fluorescence intensity (a.u.)"},
      {"sequence": "TTATAGCTAGCTCTTACTTTATTGTACTGCGTTCTAGGGGCGGAGTCACCTAGTGCAG", "binding signal": "14000 fluorescence intensity (a.u.)"},
      {"sequence": "TCCGCCGATCCCGCCGTCTCCGGCCATCTCCGCCGCCGGCCGGAGTCACCTAGTGCAG", "binding signal": "9380 fluorescence intensity (a.u.)"},
      {"sequence": "GTTGGGGTGGAGGGCTGCTCCAGGTGAGAGGGCTGGGCATCGGAGTCACCTAGTGCAG", "binding signal": "9900 fluorescence intensity (a.u.)"},
      {"sequence": "ACTAGTATCCCATCCATTCTTGCCTTCGAACCTCCATATTCGGAGTCACCTAGTGCAG", "binding signal": "11400 fluorescence intensity (a.u.)"},
      {"sequence": "CACTTTTTCTTACTTTTAATTTTTTTTAATCTTGCTTTTACGGAGTCACCTAGTGCAG", "binding signal": "9580 fluorescence intensity (a.u.)"},
      {"sequence": "AATTTGGGAGTGGGATGGTAATTGGGAAGTCATTGTATTTCGGAGTCACCTAGTGCAG", "binding signal": "11900 fluorescence intensity (a.u.)"},
      {"sequence": "TTCTGATGCTATTTCCAGGCTCAAGCAGTGTGACACATCTCGGAGTCACCTAGTGCAG", "binding signal": "9650 fluorescence intensity (a.u.)"},
      {"sequence": "TAGGTTGGGTTTTTTTGGGACGGAGGGAGTACAGGTTTATCGGAGTCACCTAGTGCAG", "binding signal": "8830 fluorescence intensity (a.u.)"},
      {"sequence": "CATTATCATCATCTCCGGGTGGGAGAATCAGCGCATATAACGGAGTCACCTAGTGCAG", "binding signal": "8320 fluorescence intensity (a.u.)"},
      {"sequence": "GTGCATTTGTAGGGGTGTTAGTGTGGTGTTACGTGCGTAGCGGAGTCACCTAGTGCAG", "binding signal": "9290 fluorescence intensity (a.u.)"},
      {"sequence": "CAAGCGATCCATCTCTCCTTAGCCACACCCCAACTTTAACCGGAGTCACCTAGTGCAG", "binding signal": "9250 fluorescence intensity (a.u.)"},
      {"sequence": "CGCATAATACTTTTACTTGCACCAATCAAGTACACGCTCTCGGAGTCACCTAGTGCAG", "binding signal": "9320 fluorescence intensity (a.u.)"}
    ]}
  ]
}
